Source: PMC8143456 (Microorganisms, 2021)

Experiment: MTS cytotoxicity assay in Vero cells
Details: African green monkey

## CCC(CC)COC(=O)[C@H](C)N[P@](=O)(OC[C@H]1O[C@@](C#N)(c2ccc3c(N)ncnn23)[C@H](O)[C@@H]1O)Oc1ccccc1 [Remdesivir, reference compound]
  CC50 at 4 days: > 100 µM
